In PubChem BioAssay AID1487 (National Center for Advancing Translational Sciences (NCATS), 2009):
Some of the results follow. Further columns of the screen follow, without active or inactive calls. Compounds called inactive in the main read-out are mostly missing here. Words in brackets tell the shape of the fitted curve; partial curves, single points and poor fits give uncertain potencies.

Assay: qHTS Assay for Modulators of Lamin A Splicing
Details: HeLa LMNA splicing GFP/RFP minigene ratio, 48 h
How it was run: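 S3 HeLa stable clones carrying a lamin A-EGFP splicing minigene plus DsRed2 were seeded at 600 cells/well in Opti-MEM with 2% FBS, pin-dosed and incubated 48 h at 37°C. Acumen cytometry (488 nm) gave the GFP/RFP total-intensity ratio.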

[1] = measured here: GFP splicing reporter channel
[2] = measured here: RFP viability control channel

Row | Compound | AC50 [1] | AC50 [2]
1 | COc1cc(C(=O)Oc2ccccc2/C=N/NC(=O)c2ccc(C)cc2)cc(OC)c1OC | 0.0178 µM [falling, single point] | 0.0316 µM [falling, partial curve]
2 | Oc1ccc2cc(Br)ccc2c1CN1CCCC1 | 0.0891 µM [falling, full curve, poor fit] | –
3 | C=C(Cl)COc1ccc2c(CC)cc(=O)oc2c1 | – | 0.178 µM [rising, full curve]
4 | CC1=CC(C)(C)n2c(O)c(N=NC(N)=S)c3cccc1c32 | – | 1.58 µM [rising, full curve, poor fit]
5 | CSc1nc2c(cnn2-c2ccc(C)c(C)c2)c(=O)[nH]1 | 7.08 µM [falling, partial curve, poor fit] | 7.08 µM [falling, partial curve, poor fit]
6 | CN1/C(=C\C(=O)COC(=O)C2COc3ccccc3O2)C(C)(C)c2ccccc21 (centres undefined) | – | 10 µM [rising, single point]
7 | Cn1cccc1/C=C1\SC(=S)N(NC(=O)c2ccc(Cl)cc2)C1=O | – | 28.2 µM [rising, partial curve]
8 | Cc1ccc(NS(=O)(=O)c2ccc3[nH]c4c(c3c2)CCCCCC4)cc1C | 22.4 µM [falling, single point] | 35.5 µM [falling, single point]
9 | CCc1ccc(CN(C)Cc2nc(-c3cccc(Cl)c3)no2)nc1 | 35.5 µM [falling, single point] | 22.4 µM [falling, single point]
10 | CCOC(=O)COc1ccc(C(=O)Nc2cccc(Cl)c2C)cc1 | – | 6.31 µM [rising, single point]
11 | CCCCN(CCCNC(=O)C1CCN(S(=O)(=O)N2CCOCC2)CC1)c1ccccc1 | – | 35.5 µM [rising, single point]
12 | COc1ccc(NC(=O)Cc2coc3cc(C)c(C(C)C)cc23)cc1S(=O)(=O)N1CCOCC1 | – | 11.2 µM [rising, partial curve, poor fit]
13 | CCOc1ccccc1CNC(=O)CCCn1c(=O)c2cccn2c2ccc(F)cc21 | – | 0.0562 µM [falling, full curve, poor fit]
14 | CCc1c(C)sc(NC(=S)N2CC(C)OC(C)C2)c1C(=O)OC (centres undefined) | 11.2 µM [rising, partial curve] | 11.2 µM [rising, partial curve]
15 | Cn1c(C(=O)NCc2ccccc2F)cc2cc(S(=O)(=O)N3CCCCC3)ccc21 | 25.1 µM [falling, single point] | –
16 | COc1cccc(/C=N/NC(=O)c2ccc([N+](=O)[O-])cc2Cl)c1O | – | 12.6 µM [rising, partial curve]
17 | Cc1cc(C)n(CC(=O)Nc2cccc(C(F)(F)F)c2)n1 | – | 0.01 µM [falling, full curve, poor fit]
18 | CCN(CC)CCOCCOC(=O)C(CC)(CC)c1ccccc1 (tested in a mixture with another compound) | 0.00708 µM [falling, full curve] | 35.5 µM [rising, single point]
19 | N/C(=N\O)c1ccccc1-n1cccc1 | 8.91 µM [falling, partial curve] | 25.1 µM [falling, partial curve, poor fit]
20 | Cc1ccc(SCC(=O)NC(=O)NC(C)C)c(C)c1 | – | 3.16 µM [falling, single point]
21 | Cc1cc2c(cc(C(=O)OC(C(=O)NCc3ccco3)C(C)C)n2C)o1 (centres undefined) | – | 15.8 µM [rising, partial curve]
22 | OC(COc1ccc2c(c1)CCC2)CN1CCN(c2cccc(Cl)c2)CC1 (centres undefined) | – | 31.6 µM [rising, single point]
23 | O=C(Nc1ccccc1)Nc1cc([N+](=O)[O-])ccc1F | – | 22.4 µM [rising, single point]
24 | CCNc1ncc2nc(-c3cc(F)cc(F)c3)c(=O)n(C3CC3)c2n1 | 14.1 µM [falling, partial curve, poor fit] | 22.4 µM [falling, partial curve, poor fit]
25 | CCN(CC)C(=O)c1sc2c(c1C)c(=O)n(Cc1ccccc1)c(=O)n2Cc1c(C)cc(C)cc1C | 35.5 µM [rising, single point] | –
26 | C/C(=N\NC(=S)NC1CCCCC1)c1c(F)cccc1F | – | 35.5 µM [falling, single point]
27 | O=C(NCC(c1cccs1)N1CCOCC1)c1ccccc1NS(=O)(=O)c1ccc(Br)cc1 (centres undefined) | – | 31.6 µM [rising, single point]

A draw from above in order of heavy-atom count, rising:
Row | Compound | AC50 [1] | AC50 [2]
2 | Oc1ccc2cc(Br)ccc2c1CN1CCCC1 | 0.0891 µM [falling, full curve, poor fit] | –
4 | CC1=CC(C)(C)n2c(O)c(N=NC(N)=S)c3cccc1c32 | – | 1.58 µM [rising, full curve, poor fit]
9 | CCc1ccc(CN(C)Cc2nc(-c3cccc(Cl)c3)no2)nc1 | 35.5 µM [falling, single point] | 22.4 µM [falling, single point]

Next structures.

Row | Compound | AC50 [1] | AC50 [2]
28 | CCOC(=O)c1ccc(NC(=O)c2c(NCc3ccc(OC)c(OC)c3OC)sc3c2CCC(C)C3)cc1 (centres undefined) | 1 µM [rising, partial curve, poor fit] | 25.1 µM [rising, single point]
29 | COc1ccccc1OCC(=O)N/N=C/C=C/c1ccc([N+](=O)[O-])o1 | 12.6 µM [falling, single point] | 11.2 µM [falling, partial curve]
30 | CCn1c(SCC(=O)Nc2ccccc2)nnc1-c1ccc(S(=O)(=O)N2CCOCC2)cc1 | 20 µM [rising, partial curve, poor fit] | 28.2 µM [rising, partial curve]
31 | CCOc1ccc(C(c2c(O)cc(C)n(CCOC)c2=O)N2CCN(c3ccc(F)cc3)CC2)cc1 (centres undefined) | – | 15.8 µM [rising, single point]
32 | O=C(NC(=S)N1CCc2ccccc21)c1ccccc1 | – | 35.5 µM [rising, single point]
33 | NNC(=O)/C(=N/Nc1ccccc1)S(=O)(=O)c1ccc(Cl)cc1 | – | 35.5 µM [rising, single point]
34 | CCCC(c1nnnn1CC(=O)OCC)N(Cc1cc2c(C)cc(C)cc2[nH]c1=O)C1CCCC1 (centres undefined) | – | 35.5 µM [rising, single point]
35 | Cc1ccccc1C1C(C#N)=C2N=C(N)c3c(sc4c3CCCCC4)N2C2=C1C(=O)CCC2 (centres undefined) | 35.5 µM [rising, single point] | –
36 | Cc1nn2c(-c3cccc(NC(=O)c4ccco4)c3)nnc2c2ccccc12 | – | 14.1 µM [rising, single point]
37 | C=CCOc1cccc(C2C(C(=O)c3cccs3)=C(O)C(=O)N2Cc2cccnc2)c1 (centres undefined) | 0.0708 µM [rising, full curve, poor fit] | 0.0501 µM [rising, full curve, poor fit]
38 | CCCCn1c(C)cc(C)c(S(=O)(=O)c2ccccc2C)c1=O | 35.5 µM [rising, single point] | 35.5 µM [rising, single point]
39 | CCN(CC)S(=O)(=O)c1ccc2oc(C(=O)N3CCc4ccccc4C3)c(C)c2c1 | 14.1 µM [rising, partial curve] | 22.4 µM [rising, partial curve]
40 | Cc1ccc(S(=O)(=O)n2nccc2-c2c(-c3ccccc3)noc2C)cc1 | 0.0282 µM [rising, full curve] | –
41 | CC(=O)Nc1sc2c(c1C(c1ccc(F)cc1)N1CCOCC1)CCCC2 (centres undefined) | 35.5 µM [rising, single point] | –
42 | COc1ccc(CCN(C)C(=O)c2ccc(S(=O)(=O)NCc3ccco3)cc2)cc1OC | 5.62 µM [rising, single point] | 3.16 µM [rising, full curve, poor fit]
43 | Cc1cc2cc(CNC(=S)Nc3ccc(OC(F)F)cc3)ccc2[nH]1 | 35.5 µM [rising, single point] | 35.5 µM [rising, single point]
44 | CCCC1=C/C(=C/c2ccc(-c3ccccc3OC)o2)C(=O)O1 | 31.6 µM [rising, single point] | –
45 | COc1ccc(Cc2noc(CN(C)CC3(N4CCOCC4)CCCCC3)n2)cc1OC | – | 0.224 µM [falling, full curve, poor fit]
46 | Cc1cc(C(=O)CSc2nc(N)cc(N)n2)c(C)n1C1CC1 | – | 0.0251 µM [falling, full curve, poor fit]
47 | C(=N\Nc1nc(N2CCCC2)nc(N2CCCC2)n1)/c1ccncc1 | 6.31 µM [rising, single point] | 0.794 µM [rising, partial curve, poor fit]
48 | Cc1cccc(-c2ncc(CN3CCN(CC(C)C)C(CCO)C3)cn2)c1 (centres undefined) | 0.02 µM [falling, full curve, poor fit] | 0.0631 µM [falling, full curve, poor fit]
49 | Cc1ccc(NC(=O)C2C(=O)N(C)c3ccccc32)cc1 (centres undefined) | 1.58 µM [rising, partial curve] | 0.891 µM [rising, full curve, poor fit]
50 | COc1ccc2cc3cc(C(=O)NCCN4CCc5ccccc5C4)oc3nc2c1 | – | 12.6 µM [rising, single point]
51 | Clc1ccccc1-c1nc(N/N=C/c2cccnc2)c2ccccc2n1 | 14.1 µM [falling, single point] | –
52 | Cc1cc(C)nc(NC(=O)c2ccc(Cl)cc2Cl)n1 | – | 0.00355 µM [falling, full curve, poor fit]
53 | Cc1ccc(-n2nc3c([n+]2[O-])CCc2c-3no[n+]2[O-])cc1 | 35.5 µM [rising, single point] | –
54 | CCOC(=O)c1cccc(Nc2nc(-c3cccnc3)nc3ccccc23)c1 | 14.1 µM [falling, partial curve] | 25.1 µM [falling, partial curve]
